According to patent US5344933A, “Pyrrole ring-or condensed pyrrole ring-containing azomethine dye” (Fuji Photo Film Co., Ltd., priority 1991, dated 1994):

Assay: Thermal head printing on heat transfer image-receiving material (Example 2 and following)
Conditions: Table 1, polyvinyl butyral resin
Description: Onto a 6-μm thick polyethylene terephthalate film (produced by Teijin Limited) which had been rendered heat resistant and smoothened on its back side as a support was coated a heat transfer dye providing layer coating composition having the following formulations by a wire bar coating process to a dry thickness of 1.5 μm to prepare a heat transfer dye providing material (1-1).
Heat transfer dye providing materials (1-2) to (1-10) of the present invention and a comparative heat transfer dye providing material (1-11) were prepared in the same manner as mentioned above except that Dye 2 was replaced by other dyes as set forth in Table 1, respectively.
Onto a 150-μm thick synthetic paper (YUPO-FPG-150 produced by Oji Yuka Goseishi Co., Ltd.) was coated an image-receiving layer coating composition having the following formulations by a wire bar coating process to a dry thickness of 8 μm to prepare a heat transfer image-receiving material. The material was tentatively dried by a dryer, and then dried in an oven at a temperature of 100° C. for 30 minutes.
The heat transfer dye providing materials (1-1) to (1-11) thus obtained were each laminated with the heat transfer image-receiving material in such an arrangement that the heat transfer dye providing layer was brought into contact with the image-receiving layer. Printing was effected by a thermal head on the heat transfer dye providing material from the support side under the conditions of thermal head output of 0.25 W/dot, pulse width of 0.15 to 15 msec., and dot density of 6 dots/mm to cause the cyan dye to be imagewise transferred to the image-receiving layer in the image-receiving material. As a result, a sharp recording was provided free of uneven transfer.

Question: With `CCOC(=O)c1c(C)n2c(nc1=O)C(C#N)=C(c1ccccc1)C2=Nc1ccc(N(CC)CC)cc1` [Dye 2] as the compound, how does the Maximum density read?
Answer: 1.8

Question: With `CCOC(=O)c1c(C)n2c(nc1=O)C(C#N)=C(c1ccccc1)C2=Nc1ccc(N(CC)CCOc2ccc(OC)cc2)cc1` [Dye 3] as the compound, how does the Maximum density read?
Answer: 1.3

Question: Which Maximum density does the source give for `CCOC(=O)c1c(C)n2c(nc1=O)C(C#N)=C(c1ccccc1)C2=Nc1ccc(N(CC)CC)cc1NC(=O)OC` [Dye 4] here?
Answer: 1.3

Question: Which Maximum density does the source give for `CCOC(=O)c1cn2c(nc1=O)C(C#N)=C(c1ccccc1)C2=Nc1ccc(N(CC)CC)cc1` [Dye 8] here?
Answer: 1.9

Question: Which Maximum density does the source give for `CCOC(=O)c1cn2c(nc1=O)C(C#N)=C(c1ccccc1)C2=Nc1ccc(N(CC)CCOc2ccc(OC)cc2)cc1` [Dye 10] here?
Answer: 2.0

Question: With `CCOC(=O)c1cn2c(nc1=O)C(C#N)=C(c1ccccc1)C2=Nc1ccc(N(CC)CC)cc1NC(=O)OC` [Dye 12] as the compound, how does the Maximum density read?
Answer: 1.3

Question: With `CCOC(=O)c1cn2c(nc1=O)C(C#N)=C(C#N)C2=Nc1ccc(N(CC)CC)cc1NC(=O)N(C)C` [Dye 16] as the compound, how does the Maximum density read?
Answer: 1.5

Question: Which Maximum density does the source give for `CCN(CC)c1ccc(N=C2C(C#N)=C(c3ccccc3)c3nc(=O)ccn32)c(NC(C)=O)c1` [Dye 17] here?
Answer: 1.3

Question: With `CCN(CC)c1ccc(N=C2C(c3ccccc3)=C(C#N)c3nc(=O)c4ccccc4n32)c(NC(C)=O)c1` [Dye 22] as the compound, how does the Maximum density read?
Answer: 1.4

Question: With `CCOC(=O)C1=C(C#N)C(=Nc2ccc(N(CC)CC)cc2)n2c1nc1ccccc1c2=O` [Dye 29] as the compound, how does the Maximum density read?
Answer: 1.7

Question: Which Maximum density does the source give for `CCC1=C(Cl)C(=O)C(NC(=O)c2ccco2)=CC1=Nc1ccc(N(CC)CC)cc1` [Dye a, reference compound] here?
Answer: 2.5
